No constants are given. Whether binding was seen depends on the method and setting. Binding seen in cells or lysates may run through a third protein. Some entries that bind do so weakly or less than the wild type.
Columns and labels:
[1] = target: T1, ELK1 (human (endogenous in monocyte-derived macrophages)) (UniProt P19419); assay: co-IP; human monocytes treated for 3 days with 100 ng/mL CSF-1 (macrophages); IP with anti-ELK1 (sc-365876) or anti-CSF-1R (sc-365719) or control IgG, immunoblot for CSF-1R or YY1; lysis in 50 mM Tris pH 7.4, 150 mM NaCl, 1% NP-40, 10% glycerol
T1 sequence: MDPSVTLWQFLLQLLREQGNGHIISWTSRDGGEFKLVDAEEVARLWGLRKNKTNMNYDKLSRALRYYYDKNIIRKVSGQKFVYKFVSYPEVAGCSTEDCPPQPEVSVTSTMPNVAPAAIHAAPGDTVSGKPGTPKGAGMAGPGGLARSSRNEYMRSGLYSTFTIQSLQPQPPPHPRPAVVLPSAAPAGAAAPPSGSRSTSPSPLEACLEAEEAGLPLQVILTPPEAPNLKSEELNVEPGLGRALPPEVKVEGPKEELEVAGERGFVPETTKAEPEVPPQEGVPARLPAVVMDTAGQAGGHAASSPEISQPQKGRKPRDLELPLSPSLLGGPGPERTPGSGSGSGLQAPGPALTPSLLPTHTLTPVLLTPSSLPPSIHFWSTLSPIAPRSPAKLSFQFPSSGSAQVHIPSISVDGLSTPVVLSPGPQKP

Sequences of proteins named here, by UniProt entry; tags and fusion partners are left off. Residues count along the entry.
UniProt P07333, residues 20-972: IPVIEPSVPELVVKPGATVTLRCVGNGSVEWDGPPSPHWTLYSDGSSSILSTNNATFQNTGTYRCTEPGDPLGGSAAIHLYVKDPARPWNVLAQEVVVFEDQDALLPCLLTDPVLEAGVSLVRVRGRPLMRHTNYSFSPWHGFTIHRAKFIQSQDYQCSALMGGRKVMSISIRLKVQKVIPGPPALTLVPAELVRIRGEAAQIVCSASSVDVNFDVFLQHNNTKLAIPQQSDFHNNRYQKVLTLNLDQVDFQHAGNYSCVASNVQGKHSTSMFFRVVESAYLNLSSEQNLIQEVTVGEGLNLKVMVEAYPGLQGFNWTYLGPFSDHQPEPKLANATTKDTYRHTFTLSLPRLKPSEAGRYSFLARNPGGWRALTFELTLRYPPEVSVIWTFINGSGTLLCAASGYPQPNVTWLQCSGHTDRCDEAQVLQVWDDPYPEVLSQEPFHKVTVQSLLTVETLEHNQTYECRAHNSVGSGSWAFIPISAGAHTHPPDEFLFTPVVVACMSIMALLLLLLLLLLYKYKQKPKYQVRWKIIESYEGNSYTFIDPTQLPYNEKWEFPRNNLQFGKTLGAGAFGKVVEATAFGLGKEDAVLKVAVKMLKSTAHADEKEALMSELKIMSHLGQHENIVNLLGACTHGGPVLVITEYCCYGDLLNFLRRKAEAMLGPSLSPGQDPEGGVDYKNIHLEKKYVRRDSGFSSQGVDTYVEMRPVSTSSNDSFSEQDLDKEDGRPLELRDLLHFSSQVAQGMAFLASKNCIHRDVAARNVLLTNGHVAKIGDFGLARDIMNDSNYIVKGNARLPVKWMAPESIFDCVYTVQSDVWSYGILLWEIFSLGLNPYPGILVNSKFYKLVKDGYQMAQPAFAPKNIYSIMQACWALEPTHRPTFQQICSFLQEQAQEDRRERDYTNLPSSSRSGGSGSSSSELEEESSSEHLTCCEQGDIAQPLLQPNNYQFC
UniProt P25490: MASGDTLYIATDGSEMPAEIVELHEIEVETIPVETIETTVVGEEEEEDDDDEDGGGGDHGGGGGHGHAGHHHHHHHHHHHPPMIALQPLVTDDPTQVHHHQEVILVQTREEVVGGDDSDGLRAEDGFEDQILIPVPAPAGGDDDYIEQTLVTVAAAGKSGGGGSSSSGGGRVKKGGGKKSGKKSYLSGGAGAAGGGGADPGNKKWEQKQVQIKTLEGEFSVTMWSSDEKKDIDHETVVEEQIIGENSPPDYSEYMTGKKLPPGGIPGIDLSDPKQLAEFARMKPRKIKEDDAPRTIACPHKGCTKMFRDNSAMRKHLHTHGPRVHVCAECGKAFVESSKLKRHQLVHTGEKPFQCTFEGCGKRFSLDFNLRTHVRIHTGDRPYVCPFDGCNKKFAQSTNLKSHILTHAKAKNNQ

[2] = target: Colony-Stimulating Factor 1 Receptor (CSF-1R) (human (endogenous in primary monocytes)) (UniProt P07333); assay: as above

| binding [1] | binding [2] | Substance |
| --- | --- | --- |
| binds |  | Colony-Stimulating Factor 1 Receptor (CSF-1R) (from UniProt P07333 20-972) |
|  | binds | YY1 (yin yang 1) (from UniProt P25490 1-414) |

Source: publication PMC6486619
